PubChem BioAssay AID1259308, NCATS – 2017
The deposit covers about 59,000 reagents; shown is a random part of them. About 1,510 of them (2.6%) count as active. 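Calls use total luciferase alone and ignore viability, so some active siRNAs may act by altering cell number.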 Unmarked entries are inactive. The numbers tell different reagents against one gene apart. No sequences are given here.

Aim: 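Candidate targets for better recombinant protein yield in mammalian cells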 (primary screen)
Cell system: human HEK293 embryonic kidney cells stably expressing firefly luciferase (HEK-CMV-Luc2-Hygro)
Reagents: single siRNA against human genes, 0.8 pmol siRNA per well
Time to read-out: 72 h
Read-out: 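Reporter luminescence and viable-cell signal on separate replicate plates, given as percent of non-targeting control and median/MAD z-scores, plus per-cell luciferase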
Direction: total luciferase, z-score and total luciferase, % of control: higher = more reporter protein produced; luciferase per cell, z-score: higher = more reporter output per viable cell; viable cells, % of control: higher = more viable cells
Call rule: 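Active when the median/MAD z-score for overall luciferase is greater than 3; a gene was taken forward for validation with new siRNAs if at least two of its three siRNAs passed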
Meaning of the calls: active = raised luciferase; inactive = no rise

target gene	siRNA no.	total luciferase, z-score	total luciferase, % of control	luciferase per cell, z-score	viable cells, % of control
EMC3 (ER membrane protein complex subunit 3)	1	-0.586	70.2	0.277	73
EMC3 (ER membrane protein complex subunit 3)	2	-0.821	65.6	-1.08	97.4
EMC3 (ER membrane protein complex subunit 3)	3	-1.25	57	-0.688	76.4
BARD1 (BRCA1 associated RING domain 1)	1	3.09 (active)	143	2.25	88.5
BARD1 (BRCA1 associated RING domain 1)	2	0.746	96.7	0.924	84.8
BARD1 (BRCA1 associated RING domain 1)	3	-0.879	64.4	-0.413	80.2
MAF1 (MAF1 negative regulator of RNA polymerase III)	1	-0.598	70	-0.134	81
MAF1 (MAF1 negative regulator of RNA polymerase III)	2	-1.86	44.9	-1.88	82.4
MAF1 (MAF1 negative regulator of RNA polymerase III)	3	-0.456	72.8	-0.579	94.8
MPZ (myelin protein zero)	1	-0.309	75.7	1.14	62.6
MPZ (myelin protein zero)	2	1.27	107	2.07	69.4
MPZ (myelin protein zero)	3	-0.768	66.6	-0.306	80.7
ME3 (malic enzyme 3)	1	1.55	113	3.76	46.7
ME3 (malic enzyme 3)	2	-0.883	64.3	-1.15	97.3
ME3 (malic enzyme 3)	3	0.191	85.7	0.57	82.4
CYB5R4 (cytochrome b5 reductase 4)	1	-1.14	59.2	-1.27	92.4
CYB5R4 (cytochrome b5 reductase 4)	2	0.959	101	0.359	103
CYB5R4 (cytochrome b5 reductase 4)	3	-1.17	58.7	-0.634	77.5
C5orf34 (chromosome 5 open reading frame 34)	1	-0.121	79.5	0.0279	88.2
C5orf34 (chromosome 5 open reading frame 34)	2	-0.743	67.1	-1.2	103
C5orf34 (chromosome 5 open reading frame 34)	3	0.709	96	0.361	97.5
SSTR1 (somatostatin receptor 1)	1	-0.182	78.3	1.05	66.4
SSTR1 (somatostatin receptor 1)	2	-0.96	62.8	-0.334	76.6
SSTR1 (somatostatin receptor 1)	3	0.112	84.1	0.354	85.6
NEU2 (neuraminidase 2)	1	0.338	88.6	0.354	90.2
NEU2 (neuraminidase 2)	2	-0.951	63	-0.16	73.4
NEU2 (neuraminidase 2)	3	-1.64	49.2	-1.95	91.9
INTS6L (integrator complex subunit 6 like)	1	1.45	111	1.67	79.7
INTS6L (integrator complex subunit 6 like)	2	-0.0645	80.6	0.245	84.4
INTS6L (integrator complex subunit 6 like)	3	0.0459	82.8	0.278	86
ASTE1 (asteroid structure-specific endonuclease 1)	1	0.277	87.4	-0.383	108
ASTE1 (asteroid structure-specific endonuclease 1)	2	0.656	94.9	0.867	84.4
ASTE1 (asteroid structure-specific endonuclease 1)	3	-1.14	59.2	-1.9	109
TRIM58 (tripartite motif containing 58)	1	0.832	98.4	0.291	102
TRIM58 (tripartite motif containing 58)	2	-0.366	74.6	-0.111	85.8
TRIM58 (tripartite motif containing 58)	3	-2.55	31.3	-3.06	78.2
RPS2P12 (ribosomal protein S2 pseudogene 12)	1	0.265	87.2	0.631	82.5
RPS2P12 (ribosomal protein S2 pseudogene 12)	2	0.768	97.2	0.412	97.4
RPS2P12 (ribosomal protein S2 pseudogene 12)	3	-0.233	77.2	1.17	63.5
